{
  "sequences": {"note": "Protein sequences, listed by entry. Tags and fused reporters are not part of them. Lines headed by an entry give the natural chain unless they say otherwise; changes in a name come on top.", "UniProt P56857": "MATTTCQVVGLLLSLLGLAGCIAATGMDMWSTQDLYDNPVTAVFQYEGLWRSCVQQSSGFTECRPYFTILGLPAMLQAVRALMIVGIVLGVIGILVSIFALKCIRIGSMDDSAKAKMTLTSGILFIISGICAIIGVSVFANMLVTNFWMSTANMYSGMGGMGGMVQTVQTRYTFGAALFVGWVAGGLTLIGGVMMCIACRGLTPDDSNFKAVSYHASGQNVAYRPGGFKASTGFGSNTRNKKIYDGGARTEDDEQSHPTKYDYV"},
  "source": "patent US20240034783A1",
  "note": "No constants are given. Whether binding was seen depends on the method and setting.",
  "data": [
    {"molecular_target": "CLDN18.2 expressed in mouse healthy stomach tissue (mouse) (UniProt P56857)", "experiment": "flow cytometry on live cells from healthy mouse stomach", "values": [
      {"binder": "hCl1a (antibody, human IgG1, kappa, V domains shown) VH: QVQLVQSGAEVKKPGASVKVSCKASGYTFTDYAMHWVRQAPGQRLEWMGWINTYTGKPTYAQKFQGRVTITRDTSASTAYMELSSLRSEDTAVYYCARAVFYGYTMDAWGQGTLVTVSS VL: DIQMTQSPSSLSASVGDRVTITCRASEDIYSNLAWYQQKPGKAPKLLIFSVKRLQDGVPSRFSGSGSGTDFTLTISSLQPEDFATYYCLQGSNFPLTFGQGTKVEIKR", "binding": "no binding (tested: 4 µg/ml; less than 1% of cells)"},
      {"binder": "hCl1f (antibody, human IgG1, kappa, V domains shown) VH: QVQLVQSGAEVKKPGASVKVSCKASGYTFTDYAMHWVRQAPGQRLEWMGWINAYTGKPTYAQKFQGRVTITRDTSASTAYMELSSLRSEDTAVYYCARAVFYGYTMDAWGQGTLVTVSS VL: DIQMTQSPSSLSASVGDRVTITCRASEDIYSNLAWYQQKPGKAPKLLIYSVKRLQDGVPSRFSGSGSGTDFTLTISSLQPEDFATYYCLQGSNFPLTFGQGTKVEIKR", "binding": "no binding (tested: 4 µg/ml; less than 1% of cells)"},
      {"binder": "hCl1b (antibody, human IgG1, kappa, V domains shown) VH: QVQLVQSGAEVKKPGASVKVSCKASGYTFTDYAMHWVRQAPGQRLEWMGWINTYTGKPTYSQKFQGRVTITRDTSASTAYMELSSLRSEDTAVYYCARAVFYGYTMDAWGQGTLVTVSS VL: DIQMTQSPSSLSASVGDRVTITCRASEDIYSNLAWYQQKPGKAPKLLIFSVKRLQDGVPSRFSGSGSGTDFTLTISSLQPEDFATYYCLQGSNFPLTFGQGTKVEIKR", "binding": "no binding (tested: 4 µg/ml; less than 1% of cells)"},
      {"binder": "hCl1c (antibody, human IgG1, kappa, V domains shown) VH: QVQLVQSGAEVKKPGASVKVSCKASGYTFTDYAMHWVRQAPGQRLEWMGWINTYTGKPTYSQKFQGRVTITRDTSASTAYMELSSLRSEDTAVYYCARAVFYGYTMDAWGQGTLVTVSS VL: DIQMTQSPSSLSASVGDRVTITCRTSEDIYSNLAWYQQKPGKAPKLLIFAIKRLQDGVPSRFSGSGSGTDFTLTISSLQPEDFATYYCLQGSKFPLTFGQGTKVEIKR", "binding": "no binding (tested: 4 µg/ml; less than 1% of cells)"},
      {"binder": "cCl1-1 (antibody, V domains shown) VH: QIQLVQSGPELKKPGESVKISCKASGYTFTDYAMHWVKQAPGKGLKWMGWINTYTGKPTYADDFKGRFVFSLEASASTANLQISNLKNEDTATYFCARAVFYGYTMDAWGQGTSVTVSS VL: DIQMTQSPASLSASLGETISIACRASEDIYSNLAWYQQKSGKSPQLLIFSVKRLQDGVPSRFSGSGSGTQYSLKISGMQPEDEGDYFCLQGSNFPLTFGSGTKLEIK", "binding": "no binding (tested: 4 µg/ml; less than 1% of cells)"}
    ]}
  ]
}
